In paper doi:10.1101/2020.01.07.896506 (bioRxiv, 2020):
Read-outs that look alike come from different tables or passages of the source. No constants are given. Whether binding was seen depends on the method and setting. Binding seen in cells or lysates may run through a third protein. A yes stands for co-enrichment or nearness to the bait. Other partners may have been found. Tags and fused reporters may be left off the sequences shown. Values belong to the molecule of their own block, whether it stands above or below them.

The chains behind the UniProt entries cited, without tags or fusion partners.
UniProt Q39024: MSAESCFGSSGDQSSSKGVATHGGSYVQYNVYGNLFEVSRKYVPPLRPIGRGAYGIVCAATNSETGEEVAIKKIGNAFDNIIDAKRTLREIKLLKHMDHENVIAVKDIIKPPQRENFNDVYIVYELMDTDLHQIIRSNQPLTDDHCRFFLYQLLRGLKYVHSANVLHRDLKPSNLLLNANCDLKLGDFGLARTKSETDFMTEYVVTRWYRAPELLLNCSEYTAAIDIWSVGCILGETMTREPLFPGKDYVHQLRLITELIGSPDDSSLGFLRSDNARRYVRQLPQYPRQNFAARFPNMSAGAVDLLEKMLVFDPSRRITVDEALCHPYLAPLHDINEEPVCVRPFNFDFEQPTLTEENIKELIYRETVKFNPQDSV

Columns and labels:
[1] = target: T1, GRXS17:FLAG-HA (Arabidopsis thaliana) (UniProt Q9ZPH2); experiment: affinity purification with mass spectrometry
T1 sequence: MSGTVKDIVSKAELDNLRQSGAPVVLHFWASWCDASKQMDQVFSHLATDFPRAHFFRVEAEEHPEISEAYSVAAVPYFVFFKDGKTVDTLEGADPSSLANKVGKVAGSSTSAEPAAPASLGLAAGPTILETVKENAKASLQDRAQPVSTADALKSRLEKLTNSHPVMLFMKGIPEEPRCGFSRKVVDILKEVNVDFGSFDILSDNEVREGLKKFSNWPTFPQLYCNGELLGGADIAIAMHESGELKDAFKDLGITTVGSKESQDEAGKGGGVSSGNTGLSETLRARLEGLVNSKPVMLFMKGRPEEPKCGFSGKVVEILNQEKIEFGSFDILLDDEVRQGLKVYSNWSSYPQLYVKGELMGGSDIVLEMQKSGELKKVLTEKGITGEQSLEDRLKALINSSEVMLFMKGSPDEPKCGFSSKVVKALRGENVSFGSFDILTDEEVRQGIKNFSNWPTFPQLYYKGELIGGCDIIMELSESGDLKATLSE

[2] = target: T1, GRXS17:FLAG-HA (Arabidopsis thaliana); experiment: affinity purification with mass spectrometry; remark: listed apart in the source

Molecule: MPK4 (from UniProt Q39024 1-376)
- binding [1]: binds

Molecule: monodehydroascorbate reductase (MDAR)
- binding [1]: binds

Molecule: protein disulfide isomerase (PDIL)
- binding [1]: binds

More lines, now with the values ahead:

- binding [1]: binds
- binding [2]: binds
B1: BolA2 (protein, UniProt Q9FIC3 1-93)
chain: MVTKEQVEASLTSKLKPIHLEVIDISGGCGSSFEVEVVSEQFEGKRLLERHRMVNAALEEEMKEIHALSIKKAQTPQQWKPPSQDSATLTKDA

- binding [1]: binds
B2: MKK2 (protein, UniProt Q9S7U9 1-363)
chain: MKKGGFSNNLKLAIPVAGEQSITKFLTQSGTFKDGDLRVNKDGVRIISQLEPEVLSPIKPADDQLSLSDLDMVKVIGKGSSGVVQLVQHKWTGQFFALKVIQLNIDEAIRKAIAQELKINQSSQCPNLVTSYQSFYDNGAISLILEYMDGGSLADFLKSVKAIPDSYLSAIFRQVLQGLIYLHHDRHIIHRDLKPSNLLINHRGEVKITDFGVSTVMTNTAGLANTFVGTYNYMSPERIVGNKYGNKSDIWSLGLVVLECATGKFPYAPPNQEETWTSVFELMEAIVDQPPPALPSGNFSPELSSFISTCLQKDPNSRSSAKELMEHPFLNKYDYSGINLASYFTDAGSPLATLGNLSGTFSV
